Five molecules from paper PMC11229372, “New Drosophila promoter-associated architectural protein Mzfp1 interacts with CP190 and is required for housekeeping gene expression and insulator activity” can be followed below.

These are yes or no findings as the source states them, for the method shown. For some assays here: Binding seen in cells or lysates may run through a third protein. Some entries that bind do so weakly or less than the wild type. Tags and fused reporters may be left off the sequences shown.

Assay [1] deals with T1, CP190 fused to the GAL4 DNA-binding domain (Drosophila) (UniProt Q24478).
T1 sequence: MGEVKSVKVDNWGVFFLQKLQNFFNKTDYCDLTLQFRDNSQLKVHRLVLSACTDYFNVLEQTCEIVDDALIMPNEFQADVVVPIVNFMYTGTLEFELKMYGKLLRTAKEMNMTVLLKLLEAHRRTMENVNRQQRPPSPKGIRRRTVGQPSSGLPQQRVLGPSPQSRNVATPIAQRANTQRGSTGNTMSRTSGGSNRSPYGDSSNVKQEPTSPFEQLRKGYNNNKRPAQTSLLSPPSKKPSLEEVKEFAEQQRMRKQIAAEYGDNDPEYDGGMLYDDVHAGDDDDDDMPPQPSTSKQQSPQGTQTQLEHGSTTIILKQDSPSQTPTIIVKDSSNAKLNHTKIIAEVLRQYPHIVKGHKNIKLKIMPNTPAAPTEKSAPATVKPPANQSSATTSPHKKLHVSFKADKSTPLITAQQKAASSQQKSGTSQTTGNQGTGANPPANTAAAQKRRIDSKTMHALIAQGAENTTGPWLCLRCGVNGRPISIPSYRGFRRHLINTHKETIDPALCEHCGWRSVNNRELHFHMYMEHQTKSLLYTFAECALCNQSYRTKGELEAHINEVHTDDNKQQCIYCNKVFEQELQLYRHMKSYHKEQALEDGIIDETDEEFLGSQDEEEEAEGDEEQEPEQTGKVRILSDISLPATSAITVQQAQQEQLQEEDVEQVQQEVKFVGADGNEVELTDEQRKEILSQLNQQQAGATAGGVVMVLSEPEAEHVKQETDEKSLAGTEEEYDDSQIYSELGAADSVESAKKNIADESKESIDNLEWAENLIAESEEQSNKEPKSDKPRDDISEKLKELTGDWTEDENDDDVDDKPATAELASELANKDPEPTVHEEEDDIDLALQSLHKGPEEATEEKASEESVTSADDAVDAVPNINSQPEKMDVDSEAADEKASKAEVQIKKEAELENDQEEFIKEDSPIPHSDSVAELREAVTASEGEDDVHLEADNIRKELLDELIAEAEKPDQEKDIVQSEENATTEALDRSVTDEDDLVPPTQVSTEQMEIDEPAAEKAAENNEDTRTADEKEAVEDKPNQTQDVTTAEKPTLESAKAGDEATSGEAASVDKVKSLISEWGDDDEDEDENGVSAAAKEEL
The assay can be described thus: two-hybrid; Mzfp1 variants fused to GAL4 activation domain (pGAD424), CP190 and its fragments fused to GAL4 DNA-binding domain (pGBT9); S. cerevisiae PJ69-4A; growth on medium lacking tryptophan, leucine, histidine and adenine at 30 C, assessed after 3 days.

In assay [2] the target is T1, CP190 fused to the GAL4 DNA-binding domain (Drosophila). Kind of assay: two-hybrid; yeast two-hybrid of Mzfp1 with CP190, Z4 and Chrom; data not shown.
Assay [3] concerns the target T2, CP190 (expressed in S2 cells) (Drosophila) (UniProt Q24478).
T2 sequence: T1 sequence
The assay can be described thus: co-IP; S2 cells co-transfected with 3xHA-Mzfp1 and CP190 plasmids; extract precipitated with anti-CP190 on Protein G magnetic beads (IgG as control), overnight 4 C, washes with 150 and 300 mM NaCl; Western blot for HA. In general terms: In western blotting, separated proteins are transferred to a membrane and probed.

B1: Mzfp1(Δ161–194) fused to the GAL4 activation domain (protein, UniProt Q1LZ24)
chain: MELCGNVMTNSKYEMFRLKCLYCSIESELKDWELFIVHVKSAHYCEDEDVRINEIKEDTEELYSVVDAADPAIAYGPDEFFEVIENSNGVDQWMEADSKDIQYEEDATAWSAATNNSWEFGPGGSSLELPAGKEVTQMDESSQNHIPLNTDDDDVDCSDFSNPRVLHLIQAYKEHPCLWNPSDEHYQDEPARSMAYEAIMERMDRKANVLFTVEELKKTLEQLHVQYTLALETKQRGKLVGLAARYFAKCEFLSVAPVVTPRENEEDNDLTAIKLNFKEENLITTSFIETYANYPVLYNQALPDFGSIEIRADAFKRMAKEFQPVVKANETDVYIAVNKLRRWLYDAIRRLKSKELIQKCSKQEVQYLQMCSFLPAKGSESQVLYCDYCDKRFHGDYNLRVHIVKAHEVGDLPYLCSFCPRRFDRHVDMDRHKLRSHFERKLKCQYCEKSFAVDTDLKVHTLIHTGERPHVCDICGKTFRLKLLLDHHVNGVHLNIRPYSCNMCTKTFRKKFELANHIKGHLNIRDKKCEYCDATFYDHSSLSRHRRSHRSE
Take B1: the binding entry in assay [1] is listed as “binds”.

B2: Madf and Zinc-Finger Protein 1 (Mzfp1), fused to the GAL4 activation domain (protein, UniProt Q1LZ24 1-586)
chain: MELCGNVMTNSKYEMFRLKCLYCSIESELKDWELFIVHVKSAHYCEDEDVRINEIKEDTEELYSVVDAADPAIAYGPDEFFEVIENSNGVDQWMEADSKDIQYEEDATAWSAATNNSWEFGPGGSSLELPAGKEVTQMDESSQNHIPLNTDDDDVDCSDFFMSEDDLAPPRKPGRPPRRTRPGQVFKFKVSFIRSNPRVLHLIQAYKEHPCLWNPSDEHYQDEPARSMAYEAIMERMDRKANVLFTVEELKKTLEQLHVQYTLALETKQRGKLVGLAARYFAKCEFLSVAPVVTPRENEEDNDLTAIKLNFKEENLITTSFIETYANYPVLYNQALPDFGSIEIRADAFKRMAKEFQPVVKANETDVYIAVNKLRRWLYDAIRRLKSKELIQKCSKQEVQYLQMCSFLPAKGSESQVLYCDYCDKRFHGDYNLRVHIVKAHEVGDLPYLCSFCPRRFDRHVDMDRHKLRSHFERKLKCQYCEKSFAVDTDLKVHTLIHTGERPHVCDICGKTFRLKLLLDHHVNGVHLNIRPYSCNMCTKTFRKKFELANHIKGHLNIRDKKCEYCDATFYDHSSLSRHRRSHRSE
Consider B2, for which the binding entry in assay [2] is recorded as “binds”.

B3: 3×HA-tagged Mzfp1 (wild-type) (protein, UniProt Q1LZ24 1-586)
chain: B2 chain
As to B3, in assay [3], the binding result is “binds”.

B4: Mzfp1(1–200) fused to the GAL4 activation domain (domain or fragment, UniProt Q1LZ24 1-200)
chain: MELCGNVMTNSKYEMFRLKCLYCSIESELKDWELFIVHVKSAHYCEDEDVRINEIKEDTEELYSVVDAADPAIAYGPDEFFEVIENSNGVDQWMEADSKDIQYEEDATAWSAATNNSWEFGPGGSSLELPAGKEVTQMDESSQNHIPLNTDDDDVDCSDFFMSEDDLAPPRKPGRPPRRTRPGQVFKFKVSFIRSNPRVL
Turning to B4, the binding entry in assay [1] was “binds”.

B5: 3×HA-tagged Mzfp1(Δ152-194) (protein, UniProt Q1LZ24)
chain: MELCGNVMTNSKYEMFRLKCLYCSIESELKDWELFIVHVKSAHYCEDEDVRINEIKEDTEELYSVVDAADPAIAYGPDEFFEVIENSNGVDQWMEADSKDIQYEEDATAWSAATNNSWEFGPGGSSLELPAGKEVTQMDESSQNHIPLNTDSNPRVLHLIQAYKEHPCLWNPSDEHYQDEPARSMAYEAIMERMDRKANVLFTVEELKKTLEQLHVQYTLALETKQRGKLVGLAARYFAKCEFLSVAPVVTPRENEEDNDLTAIKLNFKEENLITTSFIETYANYPVLYNQALPDFGSIEIRADAFKRMAKEFQPVVKANETDVYIAVNKLRRWLYDAIRRLKSKELIQKCSKQEVQYLQMCSFLPAKGSESQVLYCDYCDKRFHGDYNLRVHIVKAHEVGDLPYLCSFCPRRFDRHVDMDRHKLRSHFERKLKCQYCEKSFAVDTDLKVHTLIHTGERPHVCDICGKTFRLKLLLDHHVNGVHLNIRPYSCNMCTKTFRKKFELANHIKGHLNIRDKKCEYCDATFYDHSSLSRHRRSHRSE
On to B5, for which, in assay [3], the binding result is “binds weakly”.
